According to patent publication US20260200983A1, “USE OF GALR2 AGONISTS TO TREAT GASTROINTESTINAL AND/OR ENDOCRINE DISORDERS” (priority 2022, published 2026):
At least one compound was matched to its structure with a doubt left. Residues, ends and D or L forms follow the SMILES beside them.

Molecular target: T1, hGALR2 (Homo sapiens, UniProt O43603)
T1 construct: expressed in transfected cells
T1 sequence (O43603 1-387): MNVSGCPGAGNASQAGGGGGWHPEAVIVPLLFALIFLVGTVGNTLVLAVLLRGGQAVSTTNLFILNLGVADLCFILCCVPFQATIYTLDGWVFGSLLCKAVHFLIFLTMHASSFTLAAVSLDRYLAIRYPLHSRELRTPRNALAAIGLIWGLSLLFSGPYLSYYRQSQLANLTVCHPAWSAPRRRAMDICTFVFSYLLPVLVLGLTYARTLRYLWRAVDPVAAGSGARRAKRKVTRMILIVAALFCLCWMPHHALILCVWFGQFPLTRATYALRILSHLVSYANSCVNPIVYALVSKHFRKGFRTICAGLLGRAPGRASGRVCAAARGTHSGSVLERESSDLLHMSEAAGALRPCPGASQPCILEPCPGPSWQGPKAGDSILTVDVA
Assay: SRE luciferase activity in mGqi-hGALR2-SRE Luc expressing cell lines
Type: cell-based
Description: FIG. 11 provides a comparison of the in vitro potency of three different GALR2 agonist peptides with certain amino acid substitutions at the 4th amino acid position. Specifically, the GALR2 agonist peptides were as follows: (1) nWTaNAALYLFGPq-NH2 (D-alanine substitution; triangle), (2) PEG2-NWTeNAALYLFGPq-NH2 (D-glutamic acid; filled circle), and (3) PEG2-NWTrNAALYLFGPq-NH2 (D-arginine; open circle). Potency of the GALR2 agonists was assessed by measuring SRE luciferase activity in mGqi-hGALR2-SRE Luc expressing cell lines treated with the peptides.
In addition to solubility (described above in Example 8), the in vitro potency of the three GALR2 agonist peptides described in Example 7 was next assessed. Specifically, mGqi-hGALR2-SRE Luc expressing cell lines were treated with the different peptides and SRE luciferase activity was measured (as a measure of intracellular activity mediated by the GALR2 agonist peptides).

CC(C)C[C@H](NC(=O)[C@H](C)NC(=O)[C@H](C)NC(=O)[C@H](CC(N)=O)NC(=O)[C@@H](CCCNC(=N)N)NC(=O)[C@@H](NC(=O)[C@H](Cc1c[nH]c2ccccc12)NC(=O)[C@H](CC(N)=O)NC(=O)COCCOCCN)[C@@H](C)O)C(=O)N[C@@H](Cc1ccc(O)cc1)C(=O)N[C@@H](CC(C)C)C(=O)N[C@@H](Cc1ccccc1)C(=O)NCC(=O)N1CCC[C@H]1C(=O)N[C@H](CCC(N)=O)C(N)=O [D-Arginine (SEQ ID NO: 89), PEG2-NWTrNAALYLFGPq-NH2] (HELM PEPTIDE1{[NCCOCCOCC(=O)[*:2]].N.W.T.[dR].N.A.A.L.Y.L.F.G.P.[dQ].[am]}$$$$V2.0; N-terminus assumed)
logEC50 (mean ± SEM): −7.89 ± 0.1

CC(C)C[C@H](NC(=O)[C@H](C)NC(=O)[C@H](C)NC(=O)[C@H](CC(N)=O)NC(=O)[C@@H](CCC(=O)O)NC(=O)[C@@H](NC(=O)[C@H](Cc1c[nH]c2ccccc12)NC(=O)[C@H](CC(N)=O)NC(=O)COCCOCCN)[C@@H](C)O)C(=O)N[C@@H](Cc1ccc(O)cc1)C(=O)N[C@@H](CC(C)C)C(=O)N[C@@H](Cc1ccccc1)C(=O)NCC(=O)N1CCC[C@H]1C(=O)N[C@H](CCC(N)=O)C(N)=O [D-Glutamic Acid (SEQ ID NO: 88), PEG2-NWTeNAALYLFGPq-NH2] (HELM PEPTIDE1{[NCCOCCOCC(=O)[*:2]].N.W.T.[dE].N.A.A.L.Y.L.F.G.P.[dQ].[am]}$$$$V2.0; N-terminus assumed)
logEC50 (mean ± SEM): −7.02 ± 0.1
